# Source: publication doi:10.64898/2025.12.12.693869
# By UniProt entry, the sequences of proteins in these tests, tags left out. Where a name states a change or a piece, a line headed by the entry shows the natural chain unless it says otherwise.
# UniProt Q54CB5: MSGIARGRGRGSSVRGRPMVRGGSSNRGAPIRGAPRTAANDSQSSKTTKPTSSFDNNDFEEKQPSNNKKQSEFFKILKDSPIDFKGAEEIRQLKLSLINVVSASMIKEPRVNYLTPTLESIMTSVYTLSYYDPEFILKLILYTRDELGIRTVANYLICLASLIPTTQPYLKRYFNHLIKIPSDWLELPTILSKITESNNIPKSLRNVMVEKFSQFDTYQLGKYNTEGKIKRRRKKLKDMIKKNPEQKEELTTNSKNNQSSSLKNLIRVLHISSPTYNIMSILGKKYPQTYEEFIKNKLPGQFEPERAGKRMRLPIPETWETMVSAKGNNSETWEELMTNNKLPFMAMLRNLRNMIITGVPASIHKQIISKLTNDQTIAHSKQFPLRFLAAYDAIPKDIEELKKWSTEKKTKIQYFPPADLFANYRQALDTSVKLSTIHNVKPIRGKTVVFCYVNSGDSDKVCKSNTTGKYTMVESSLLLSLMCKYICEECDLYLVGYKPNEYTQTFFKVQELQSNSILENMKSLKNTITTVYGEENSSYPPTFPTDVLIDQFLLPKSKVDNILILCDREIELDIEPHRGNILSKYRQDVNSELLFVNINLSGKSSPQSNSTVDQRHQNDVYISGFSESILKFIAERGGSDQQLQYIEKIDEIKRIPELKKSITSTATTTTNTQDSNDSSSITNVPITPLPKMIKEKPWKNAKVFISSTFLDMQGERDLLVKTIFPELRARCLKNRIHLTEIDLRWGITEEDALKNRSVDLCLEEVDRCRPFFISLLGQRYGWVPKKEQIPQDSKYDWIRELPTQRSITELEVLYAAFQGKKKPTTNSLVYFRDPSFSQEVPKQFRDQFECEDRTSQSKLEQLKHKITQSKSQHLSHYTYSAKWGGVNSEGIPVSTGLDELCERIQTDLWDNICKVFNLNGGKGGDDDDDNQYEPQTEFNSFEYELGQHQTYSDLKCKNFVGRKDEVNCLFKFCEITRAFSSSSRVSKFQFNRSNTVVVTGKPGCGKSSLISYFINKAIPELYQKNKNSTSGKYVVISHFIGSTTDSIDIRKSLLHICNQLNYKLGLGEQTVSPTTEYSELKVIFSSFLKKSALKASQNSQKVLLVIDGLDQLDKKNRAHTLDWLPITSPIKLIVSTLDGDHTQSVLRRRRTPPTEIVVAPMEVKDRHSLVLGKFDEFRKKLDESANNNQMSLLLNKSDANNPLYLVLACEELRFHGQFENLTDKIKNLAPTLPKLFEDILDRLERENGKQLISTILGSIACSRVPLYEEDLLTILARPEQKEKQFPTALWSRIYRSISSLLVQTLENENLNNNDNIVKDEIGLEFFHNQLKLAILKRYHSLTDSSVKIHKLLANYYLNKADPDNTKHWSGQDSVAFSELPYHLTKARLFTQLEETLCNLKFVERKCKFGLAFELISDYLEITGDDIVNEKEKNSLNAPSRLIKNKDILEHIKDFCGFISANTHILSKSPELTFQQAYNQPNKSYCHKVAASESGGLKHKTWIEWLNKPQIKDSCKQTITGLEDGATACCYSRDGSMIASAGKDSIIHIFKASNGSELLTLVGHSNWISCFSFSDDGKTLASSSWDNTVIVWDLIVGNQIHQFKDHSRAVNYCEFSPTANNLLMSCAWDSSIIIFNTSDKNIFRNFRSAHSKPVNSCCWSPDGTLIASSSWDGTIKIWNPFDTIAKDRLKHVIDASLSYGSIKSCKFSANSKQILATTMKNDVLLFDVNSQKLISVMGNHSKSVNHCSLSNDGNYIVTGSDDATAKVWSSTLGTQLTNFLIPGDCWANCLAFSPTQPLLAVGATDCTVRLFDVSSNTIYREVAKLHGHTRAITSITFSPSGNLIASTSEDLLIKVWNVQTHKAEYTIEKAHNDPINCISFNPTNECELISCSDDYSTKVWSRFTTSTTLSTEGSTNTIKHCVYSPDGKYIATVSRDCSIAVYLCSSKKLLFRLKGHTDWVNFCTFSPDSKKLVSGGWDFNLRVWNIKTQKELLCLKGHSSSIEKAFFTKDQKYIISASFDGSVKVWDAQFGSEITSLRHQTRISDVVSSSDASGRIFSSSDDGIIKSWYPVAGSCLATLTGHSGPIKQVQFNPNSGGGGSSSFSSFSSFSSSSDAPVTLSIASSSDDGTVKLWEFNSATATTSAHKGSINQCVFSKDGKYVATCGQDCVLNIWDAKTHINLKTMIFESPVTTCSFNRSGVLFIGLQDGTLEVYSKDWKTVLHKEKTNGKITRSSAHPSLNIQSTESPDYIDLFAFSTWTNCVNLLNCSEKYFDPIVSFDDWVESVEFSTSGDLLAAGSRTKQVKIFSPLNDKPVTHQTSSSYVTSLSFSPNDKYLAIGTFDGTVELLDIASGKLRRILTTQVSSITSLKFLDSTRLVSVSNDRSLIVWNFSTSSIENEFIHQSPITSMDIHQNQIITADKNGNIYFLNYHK
# UniProt Q54HY5: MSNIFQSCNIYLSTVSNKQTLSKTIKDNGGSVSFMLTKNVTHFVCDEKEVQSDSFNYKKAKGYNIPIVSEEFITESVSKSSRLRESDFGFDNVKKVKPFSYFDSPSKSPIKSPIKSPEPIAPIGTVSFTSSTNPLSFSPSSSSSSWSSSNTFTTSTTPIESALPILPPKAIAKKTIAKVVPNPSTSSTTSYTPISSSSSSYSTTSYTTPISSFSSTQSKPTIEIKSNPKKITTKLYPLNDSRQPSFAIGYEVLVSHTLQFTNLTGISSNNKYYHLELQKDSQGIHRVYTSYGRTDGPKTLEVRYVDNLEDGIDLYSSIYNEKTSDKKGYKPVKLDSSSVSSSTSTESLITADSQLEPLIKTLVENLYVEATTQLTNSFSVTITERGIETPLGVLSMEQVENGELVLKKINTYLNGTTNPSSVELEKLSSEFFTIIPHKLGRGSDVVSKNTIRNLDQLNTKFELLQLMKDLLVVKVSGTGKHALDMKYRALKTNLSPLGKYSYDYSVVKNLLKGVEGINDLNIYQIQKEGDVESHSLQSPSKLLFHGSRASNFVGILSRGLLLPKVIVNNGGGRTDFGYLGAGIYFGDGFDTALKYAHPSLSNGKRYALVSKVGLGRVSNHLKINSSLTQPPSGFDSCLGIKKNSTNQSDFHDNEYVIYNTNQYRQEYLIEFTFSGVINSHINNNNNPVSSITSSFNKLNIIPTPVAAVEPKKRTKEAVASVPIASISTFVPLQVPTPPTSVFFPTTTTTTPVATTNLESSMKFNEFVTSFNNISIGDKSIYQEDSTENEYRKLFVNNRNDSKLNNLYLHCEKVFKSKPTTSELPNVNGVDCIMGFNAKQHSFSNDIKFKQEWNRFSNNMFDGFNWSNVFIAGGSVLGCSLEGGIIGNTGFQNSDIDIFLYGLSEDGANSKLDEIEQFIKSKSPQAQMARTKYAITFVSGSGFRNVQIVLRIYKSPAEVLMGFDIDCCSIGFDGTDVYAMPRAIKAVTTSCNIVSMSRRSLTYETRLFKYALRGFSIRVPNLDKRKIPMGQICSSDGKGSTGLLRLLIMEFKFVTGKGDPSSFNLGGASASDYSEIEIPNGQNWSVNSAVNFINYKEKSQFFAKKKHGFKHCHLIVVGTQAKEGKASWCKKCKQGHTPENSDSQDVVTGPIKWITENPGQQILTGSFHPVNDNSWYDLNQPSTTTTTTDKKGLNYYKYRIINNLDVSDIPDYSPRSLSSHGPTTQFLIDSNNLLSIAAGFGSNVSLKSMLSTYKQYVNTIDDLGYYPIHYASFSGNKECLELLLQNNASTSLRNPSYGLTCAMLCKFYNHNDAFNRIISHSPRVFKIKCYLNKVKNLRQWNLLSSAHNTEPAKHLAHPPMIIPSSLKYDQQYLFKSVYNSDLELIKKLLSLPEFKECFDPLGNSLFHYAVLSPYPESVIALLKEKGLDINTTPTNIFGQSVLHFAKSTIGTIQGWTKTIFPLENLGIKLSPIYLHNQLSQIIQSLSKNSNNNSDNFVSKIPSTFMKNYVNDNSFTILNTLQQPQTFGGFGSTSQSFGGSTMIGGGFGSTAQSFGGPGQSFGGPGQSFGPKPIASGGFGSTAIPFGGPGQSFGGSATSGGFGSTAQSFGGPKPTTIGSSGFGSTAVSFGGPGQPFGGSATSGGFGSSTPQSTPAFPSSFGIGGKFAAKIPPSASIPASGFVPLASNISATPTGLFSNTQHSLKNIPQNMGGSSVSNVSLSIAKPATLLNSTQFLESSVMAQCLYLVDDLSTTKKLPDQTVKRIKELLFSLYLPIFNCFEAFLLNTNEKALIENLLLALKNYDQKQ
# T1: MVPA-TurboID (D. discoideum Major Vault Protein A fused to the TurboID biotin ligase) (D. discoideum) (UniProt P34118)
# T1 sequence: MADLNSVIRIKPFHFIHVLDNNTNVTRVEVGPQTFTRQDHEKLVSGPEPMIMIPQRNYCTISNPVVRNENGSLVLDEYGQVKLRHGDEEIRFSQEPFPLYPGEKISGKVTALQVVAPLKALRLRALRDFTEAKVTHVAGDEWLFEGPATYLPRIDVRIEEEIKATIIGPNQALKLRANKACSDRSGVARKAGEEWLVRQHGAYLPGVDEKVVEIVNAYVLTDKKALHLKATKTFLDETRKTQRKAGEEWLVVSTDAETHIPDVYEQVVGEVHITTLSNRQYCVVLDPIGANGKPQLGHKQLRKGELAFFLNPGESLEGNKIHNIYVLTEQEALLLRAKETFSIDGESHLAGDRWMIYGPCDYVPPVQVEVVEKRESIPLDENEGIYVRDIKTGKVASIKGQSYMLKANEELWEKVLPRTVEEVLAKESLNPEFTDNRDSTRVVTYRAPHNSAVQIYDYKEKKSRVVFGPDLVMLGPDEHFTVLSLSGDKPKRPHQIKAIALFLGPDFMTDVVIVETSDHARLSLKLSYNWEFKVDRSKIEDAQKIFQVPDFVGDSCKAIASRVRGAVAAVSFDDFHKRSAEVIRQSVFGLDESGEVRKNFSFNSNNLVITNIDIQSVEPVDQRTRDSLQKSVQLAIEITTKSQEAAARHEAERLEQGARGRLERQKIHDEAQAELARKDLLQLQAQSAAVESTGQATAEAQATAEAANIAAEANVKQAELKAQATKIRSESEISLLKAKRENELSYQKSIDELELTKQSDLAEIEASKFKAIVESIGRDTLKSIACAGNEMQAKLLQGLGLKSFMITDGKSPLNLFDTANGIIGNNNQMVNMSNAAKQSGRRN
# Molecular target: T1, MVPA-TurboID (D. discoideum Major Vault Protein A fused to the TurboID biotin ligase) (D. discoideum)
# Experiment: proximity labelling
row,binding,Molecule
1,binds,"poly(ADP-ribose)polymerase Q8I7C6 (enzyme, UniProt Q8I7C6 1-700) MPPKKRQLSQSDEDVKTTTTTTTSTSTKPLTEIFDGIVFCFSGTFSVTQTELTKKVEGCGASTSKTCTAKVTHLVSTVDDFKKNGTAVSKALKSGIPIVTEGFITKSIEASKKLEEKDYSLSSSNDDEEEEEEEEEEEEEEEEEEVAKPTRRSSKKAPAKSEEKGEDKNKLTTRPTKKTKTNTSEAETKTAASDLDDSSSESEDEKNQISVKIKGRAANDPHFPDSRFHVYENGKDVYDATLNQTEISQNNNKFYIIQLLEADDGSSYSVWNRWGREGLKGQSSRKDFGKGGLNQAISLFCSKFYEKTKNTFTDRANFKKVAGKYDMIELDYSTDSKPKNGASTTATTTTTKKVVEHKKECSLDERVQELVKLIFDVKMMERTMTEAKYDLKKMPLGKLSKNQITKGYLVLKQIEDVMGGKSGESLSTLSSRFYTIIPHAFGMSVPPVINTNQMLIEKMNMLQNLADIEIATNIIKDSESDESNILELHYAKLKTDIQPLDENSCEYKNILLYVKNTYQGGKKPTIVNIFKIDRDGEADRYKTKKHLGNRKLLWHGSRLTNYASIISQGLRIAPPEAPVSGYRFGKGVYFADCMSLSANYCRTVGSNDFCMLLGDVALGKTADLARDTYMEKPQPNSHSTWALGTVEPDPKVFFQDTEGCITPYGQMIPSQHKGVSCYEHQYVVYDVAQVHLKYLLQLRN"
2,binds,"poly(ADP-ribose)polymerase Q55GU8 (enzyme, UniProt Q55GU8 1-644) MEKHQNQVIEENRSKPLINLTFFIDSKSKFKVSNYTLSKLIKDEFGGSIAFTLNPKVDYVITTSANFFSTKTTTFLSNQDLSKIKLINEDYFISQQKLEPTQRSKINDSYSIGNKQDSQVVNVCKKENDVVEKADDDLLKIIINPKHIPSVCYGANELKQPYFPEEYLILKSNLLSSTIIGKQNTNKFFYLELHQAIDNNLKKFYRIFTQFGRTDEIQKSNSQHRYVSNDLKEAMALYSSIYSQKIESDNGYIEVKMNSITKIGSKLKLAQLKQQKENDVNANTHIKVYNEETGEEETGQQSLFQRSYIETNVSKLMDIIYKEASKCLIKNFSVEVTENGIETQLGALSMAQIEEAKSILNEINNVLNKDGIDNQENLEMLSSRFYQLVPSKISTKKNRDSSKSVINSFESLNQLSELMNMMKDLTNSFNSNKTTSESKNHLDMKYYALNTHIEHLHQASAGYQIFIRNFLSNPHHQKAIDNGEIKILNCYRLDKKLESDNFLDVGNVQYLYHGSKPQNLVGLLSRGILPPDYVKQIGGKRTDFGYLGSGIYFSDDVVSSTYTSPIGEKGSRFIIMSSVSLGKVKEFSKIQPSLQCAPSGHHSCKGLKSTPTNPTDFKNNEYVVFNPNQSKLSFLIEYIENYKK"
3,binds,"endogenous Major Vault Protein B (MVPB) of D. discoideum (protein, UniProt P54659 1-846) MATPVQASTVIRVKPHHYIHVLDNNTNVTRVEVGPQTFTRQDHERVLNPTPLPMILIPPRQYCIIENPIIRDKEGKLVVDKFNQPKLRHGDQEIRFSQDPFPLYPGEVVIAQPVPLQVIQTNSALRLKCLRDFVEVKADKTTVSHIAGDEWLFEGPGTYYPRVEVQVVEPVRAVIIKENQALKLRARLSFVDRRDVVRQVGEEWLVRESGAYLPGVSEEIVGFIQALVLTDRIAYQLLATRSFTDSFGKVRKAGEEWIITQKDCDTYIPDVNEKVIRDIKAITLTNRQYCIVENPIDPKTGKNKLGHKELLQGDRTFFLMPGESLVKGIQNVNVLSEDEALLLSAKEEFVEKKGTTTIVHKPGDLWMIYGPCDYIPPIQVDVVERRKRIPLDVNEGIYVRDIKTGKVRSVHGSSYMLLPNEERWAKPLAPIVEELLKKSASRDQNEEHNESDRDSTKVITYRVPHNAAVQIFDYRKKEARVVFGPELVMLEPDEEFTVLSLSGKIPKRPNHIRSLALFLGPDFMTDLITVETADHARLSLKLSYNWHFKVEQDNPSKLFATSDFTGDLCKATGSLVRAAVAASTFDNFHKHSSDIIQQAVFGSTDGSSNDCLYFETNGLVITNIDVQSVEPVDQRTLDSLQKSVQLAIEITTKSQEATARQEAERLEQMARGELERQKIIDEAKNEESRSKLVQLQAQSAAVESTGQAVAEARARAEAAIIEAESEIKQARLSTRAIEIEALSEIENLKAKHIVEIQHIKSLNNLELIKAKESATIETTKFENYVEALGSDTIKSIAQAPEETKAKLLAGLGLKSFMITDGKSPLNLFDTANGLIADAQRSEVDEE"

# Molecular target: T1, MVPA-TurboID (D. discoideum Major Vault Protein A fused to the TurboID biotin ligase) (D. discoideum)
# Experiment: proximity labelling
# Remark: another data set of the same source
row,binding,Molecule
1,binds,"TEP1 (Q54CB5), likely Dictyostelium orthologue of Telomerase-associated protein 1 (from UniProt Q54CB5)"
2,binds,poly(ADP-ribose)polymerase Q54HY5 (from UniProt Q54HY5 1-1803) (enzyme)
3,binds,poly(ADP-ribose)polymerase Q54LJ4 (from UniProt Q54LJ4 1-2563) (enzyme)

# No constants are given. Whether binding was seen depends on the method and setting. In cells and extracts the contact can be indirect. A yes stands for co-enrichment or nearness to the bait. Other partners may have been found. Where a sequence is shown, tags or fusion partners need not be part of it.
